Test results as given in the supplement of paper PMC8728848.
The other results are listed elsewhere or left out.

Legend:
Assay in all cases: glycan array binding signal (z-score within array); higher = stronger binding
Settings in all cases: glycan notation: IUPAC condensed, linker removed
[1] = biological target: Fuc(a1-3)[Gal(b1-4)]GlcNAc(b1-3)Gal(b1-4)[Fuc(a1-3)]GlcNAc
Procedure, shortened: (§1)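 The binding signal is a Z-score computed within each array. Data were drawn from 3228 arrays in the Consortium for Functional Glycomics database, restricted to those with a known protein sequence. Scores were averaged over arrays of the same protein sequence at different concentrations or buffers, and over linkers, and negative values can be taken as non-binding.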

[2] = biological target: Fuc(a1-3)[Gal(b1-4)]GlcNAc(b1-3)Gal(b1-4)[Fuc(a1-3)]GlcNAc(b1-3)Gal(b1-4)[Fuc(a1-3)]GlcNAc
Procedure, shortened: as §1

[3] = biological target: Fuc(a1-3)[Gal(b1-4)]GlcNAc(b1-3)GalNAc
Procedure, shortened: as §1

[4] = biological target: Fuc(a1-3)[Gal(b1-4)]GlcNAc(b1-6)GalNAc
Procedure, shortened: as §1

[5] = biological target: Fuc(a1-3)[Gal(b1-4)]GlcNAc(b1-6)[Gal(b1-3)GlcNAc(b1-3)]Gal(b1-4)Glc
Procedure, shortened: as §1

[6] = biological target: Fuc(a1-3)[Gal(b1-4)]GlcNAc6S
Procedure, shortened: as §1

[7] = biological target: Fuc(a1-3)[Gal3S(b1-4)]Glc
Procedure, shortened: as §1

[8] = biological target: Fuc(a1-3)[Gal3S(b1-4)]GlcNAc
Procedure, shortened: as §1

[9] = biological target: Fuc(a1-3)[Gal3S(b1-4)]GlcNAc6S
Procedure, shortened: as §1

[10] = biological target: Fuc(a1-3)[GalNAc(b1-4)]GlcNAc
Procedure, shortened: as §1

[11] = biological target: Fuc(a1-3)[GalNAc(b1-4)]GlcNAc6S
Procedure, shortened: as §1

Fuc(a1-4)GlcNAc = biological target: Fuc(a1-4)GlcNAc
Procedure, shortened: as §1

Fuc(b1-3)GlcNAc = biological target: Fuc(b1-3)GlcNAc
Procedure, shortened: as §1

Gal(a1-2)Gal = biological target: Gal(a1-2)Gal
Procedure, shortened: as §1

Gal(a1-3)Gal = biological target: Gal(a1-3)Gal
Procedure, shortened: as §1

Gal(a1-3)Gal(b1-3)GlcNAc = biological target: Gal(a1-3)Gal(b1-3)GlcNAc
Procedure, shortened: as §1

[12] = biological target: Gal(a1-3)Gal(b1-3)GlcNAc(b1-2)Man
Procedure, shortened: as §1

[13] = biological target: Gal(a1-3)Gal(b1-3)GlcNAc(b1-2)Man(a1-3)[Gal(a1-3)Gal(b1-3)GlcNAc(b1-2)Man(a1-6)]Man(b1-4)GlcNAc(b1-4)GlcNAc
Procedure, shortened: as §1

[14] = biological target: Gal(a1-3)Gal(b1-3)GlcNAc(b1-3)GalNAc
Procedure, shortened: as §1

[15] = biological target: Gal(a1-3)Gal(b1-3)GlcNAc(b1-6)GalNAc
Procedure, shortened: as §1

[16] = biological target: Gal(a1-3)Gal(b1-3)[Fuc(a1-4)]GlcNAc(b1-2)Man(a1-3)[Gal(a1-3)Gal(b1-3)[Fuc(a1-4)]GlcNAc(b1-2)Man(a1-6)]Man(b1-4)GlcNAc(b1-4)GlcNAc
Procedure, shortened: as §1

Gal(a1-3)Gal(b1-4)Glc = biological target: Gal(a1-3)Gal(b1-4)Glc
Procedure, shortened: as §1

Gal(a1-3)Gal(b1-4)GlcNAc = biological target: Gal(a1-3)Gal(b1-4)GlcNAc
Procedure, shortened: as §1

[17] = biological target: Gal(a1-3)Gal(b1-4)GlcNAc(b1-2)Man
Procedure, shortened: as §1

[18] = biological target: Gal(a1-3)Gal(b1-4)GlcNAc(b1-2)Man(a1-3)[Gal(a1-3)Gal(b1-4)GlcNAc(b1-2)Man(a1-6)]Man(b1-4)GlcNAc(b1-4)GlcNAc
Procedure, shortened: as §1

[19] = biological target: Gal(a1-3)Gal(b1-4)GlcNAc(b1-3)GalNAc
Procedure, shortened: as §1

[20] = biological target: Gal(a1-3)Gal(b1-4)GlcNAc(b1-6)GalNAc
Procedure, shortened: as §1

[21] = biological target: Gal(a1-3)Gal(b1-4)[Fuc(a1-3)]GlcNAc
Procedure, shortened: as §1

[22] = biological target: Gal(a1-3)Gal(b1-4)[Fuc(a1-3)]GlcNAc(b1-2)Man(a1-3)[Gal(a1-3)Gal(b1-4)[Fuc(a1-3)]GlcNAc(b1-2)Man(a1-6)]Man(b1-4)GlcNAc(b1-4)GlcNAc
Procedure, shortened: as §1

Gal(a1-3)GalNAc = biological target: Gal(a1-3)GalNAc
Procedure, shortened: as §1

[23] = biological target: Gal(a1-3)[Gal(a1-4)]Gal(b1-4)GlcNAc
Procedure, shortened: as §1

[24] = biological target: Gal(a1-4)Gal(b1-3)GlcNAc(b1-2)Man(a1-3)[Gal(a1-4)Gal(b1-3)GlcNAc(b1-2)Man(a1-6)]Man(b1-4)GlcNAc(b1-4)GlcNAc
Procedure, shortened: as §1

Gal(a1-4)Gal(b1-4)Glc = biological target: Gal(a1-4)Gal(b1-4)Glc
Procedure, shortened: as §1

Gal(a1-4)Gal(b1-4)GlcNAc = biological target: Gal(a1-4)Gal(b1-4)GlcNAc
Procedure, shortened: as §1

[25] = biological target: Gal(a1-4)Gal(b1-4)GlcNAc(b1-2)Man(a1-3)[Gal(a1-4)Gal(b1-4)GlcNAc(b1-2)Man(a1-6)]Man(b1-4)GlcNAc(b1-4)GlcNAc
Procedure, shortened: as §1

[26] = biological target: Gal(a1-4)Gal(b1-4)GlcNAc(b1-3)Gal(b1-4)Glc
Procedure, shortened: as §1

Gal(a1-4)GlcNAc = biological target: Gal(a1-4)GlcNAc
Procedure, shortened: as §1

Gal(a1-6)Glc = biological target: Gal(a1-6)Glc
Procedure, shortened: as §1

B1: AntigenI/IIC123 (Streptococcus mutans), C9E3B4 (protein)
chain: MASMTGGQQMGRIHFHYFKLAVQPQVNKEIRNNNDINIDRTLVAKQSVVKFQLKTADLPAGRDETTSFVLVDPLPSGYQFNPEATKAASPGFDVTYDNATNTVTFKATAATLATFNADLTKSVATIYPTVVGQVLNDGATYKNNFTLTVNDAYGIKSNVVRVTTPGKPNDPDNPNNNYIKPTKVNKNENGVVIDGKTVLAGSTNYYELTWDLDQYKNDRSSADTIQKGFYYVDDYPEEALELRQDLVKITDANGNEVTGVSVDNYTNLEAAPQEIRDVLSKAGIRPKGAFQIFRADNPREFYDTYVKTGIDLKIVSPMVVKKQMGQTGGSYENQAYQIDFGNGYASNIIINNVPKINPKKDVTLTLDPADTNNVDGQTIPLNTVFNYRLIGGIIPADHSEELFEYNFYDDYDQTGDHYTGQYKVFAKVDITFKDGSIIKSGAELTQYTTAEVDTAKGAITIKFKEAFLRSVSIDSAFQAESYIQMKRIAVGTFENTYINTVNGVTYSSLEHHHHHH
- glycan array binding signal (z-score) [1]: 1.4
- glycan array binding signal (z-score) [2]: -0.452
- glycan array binding signal (z-score) [3]: 2.23
- glycan array binding signal (z-score) [4]: 1.05
- glycan array binding signal (z-score) [5]: -0.586
- glycan array binding signal (z-score) [6]: 1.51
- glycan array binding signal (z-score) [7]: 0.248
- glycan array binding signal (z-score) [8]: 0.069
- glycan array binding signal (z-score) [9]: -0.212
- glycan array binding signal (z-score) [10]: 0.751
- glycan array binding signal (z-score) [11]: -0.191
- glycan array binding signal (z-score) (Fuc(a1-4)GlcNAc): -0.968
- glycan array binding signal (z-score) (Fuc(b1-3)GlcNAc): -0.191
- glycan array binding signal (z-score) (Gal(a1-2)Gal): -0.789
- glycan array binding signal (z-score) (Gal(a1-3)Gal): -0.4
- glycan array binding signal (z-score) (Gal(a1-3)Gal(b1-3)GlcNAc): -0.086
- glycan array binding signal (z-score) [12]: -0.167
- glycan array binding signal (z-score) [13]: 3.54
- glycan array binding signal (z-score) [14]: 1.43
- glycan array binding signal (z-score) [15]: 0.258
- glycan array binding signal (z-score) [16]: 3.25
- glycan array binding signal (z-score) (Gal(a1-3)Gal(b1-4)Glc): -0.265
- glycan array binding signal (z-score) (Gal(a1-3)Gal(b1-4)GlcNAc): -1.07
- glycan array binding signal (z-score) [17]: -0.684
- glycan array binding signal (z-score) [18]: 1.61
- glycan array binding signal (z-score) [19]: -1.13
- glycan array binding signal (z-score) [20]: -0.833
- glycan array binding signal (z-score) [21]: -0.216
- glycan array binding signal (z-score) [22]: 0.406
- glycan array binding signal (z-score) (Gal(a1-3)GalNAc): 0.389
- glycan array binding signal (z-score) [23]: -0.033
- glycan array binding signal (z-score) [24]: 0.406
- glycan array binding signal (z-score) (Gal(a1-4)Gal(b1-4)Glc): -0.27
- glycan array binding signal (z-score) (Gal(a1-4)Gal(b1-4)GlcNAc): 0.444
- glycan array binding signal (z-score) [25]: -0.485
- glycan array binding signal (z-score) [26]: -0.714
- glycan array binding signal (z-score) (Gal(a1-4)GlcNAc): -0.557
- glycan array binding signal (z-score) (Gal(a1-6)Glc): -0.653
